“And” between values parts separate entries of the source, which are not always exact repeats. Equal entries are not always repeated.
Experiment: Diffusion cell experiment, release rate through nanopores (Example 14)
Conditions: pores of 5 nm

C[C@@H](O)[C@@H]1NC(=O)[C@H](CCCCN)NC(=O)[C@@H](Cc2c[nH]c3ccccc23)NC(=O)[C@H](Cc2ccccc2)NC(=O)[C@@H](NC(=O)[C@H](N)Cc2ccccc2)CSSC[C@@H](C(=O)N[C@H](CO)[C@@H](C)O)NC1=O [Octreotide]
constant release rate per nanopore: 9×10^−12 μg/second per nanopore and 8×10^−7 μg/day per nanopore

From US12071516B2, “Polymeric stabilizing formulations” (Nano Precision Medical, Inc., priority 2014, dated 2024)
